Assay results: the supplement of paper PMC12067093, “Discovery and optimisation of a covalent ligand for TRIM25 and its application to targeted protein ubiquitination” (Chemical Science, 2025)
This is one part of the list.

By UniProt entry, the sequences of proteins in these tests, tags left out. Where a name states a change or a piece, a line headed by the entry shows the natural chain unless it says otherwise.
UniProt Q5VIR6: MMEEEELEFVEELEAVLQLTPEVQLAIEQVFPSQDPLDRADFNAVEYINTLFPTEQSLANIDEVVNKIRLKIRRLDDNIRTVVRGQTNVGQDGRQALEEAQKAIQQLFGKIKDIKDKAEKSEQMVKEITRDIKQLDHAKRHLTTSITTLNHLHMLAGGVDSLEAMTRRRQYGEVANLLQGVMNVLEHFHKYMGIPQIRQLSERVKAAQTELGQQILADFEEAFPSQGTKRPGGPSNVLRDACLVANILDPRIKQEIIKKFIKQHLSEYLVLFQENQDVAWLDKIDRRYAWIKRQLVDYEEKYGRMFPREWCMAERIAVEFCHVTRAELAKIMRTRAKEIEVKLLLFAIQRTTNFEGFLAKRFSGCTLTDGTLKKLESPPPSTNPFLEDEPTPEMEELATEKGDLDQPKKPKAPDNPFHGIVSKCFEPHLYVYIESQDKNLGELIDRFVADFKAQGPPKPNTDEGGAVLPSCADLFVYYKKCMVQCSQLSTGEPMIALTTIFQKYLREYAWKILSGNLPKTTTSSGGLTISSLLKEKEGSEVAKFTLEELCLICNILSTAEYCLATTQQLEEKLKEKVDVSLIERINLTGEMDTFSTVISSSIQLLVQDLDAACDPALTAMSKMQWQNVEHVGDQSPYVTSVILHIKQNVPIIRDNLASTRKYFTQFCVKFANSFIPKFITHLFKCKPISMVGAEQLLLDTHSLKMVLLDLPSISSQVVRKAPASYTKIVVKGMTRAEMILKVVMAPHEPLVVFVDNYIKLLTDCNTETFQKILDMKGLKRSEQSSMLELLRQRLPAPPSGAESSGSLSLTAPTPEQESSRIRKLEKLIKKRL
UniProt P26640: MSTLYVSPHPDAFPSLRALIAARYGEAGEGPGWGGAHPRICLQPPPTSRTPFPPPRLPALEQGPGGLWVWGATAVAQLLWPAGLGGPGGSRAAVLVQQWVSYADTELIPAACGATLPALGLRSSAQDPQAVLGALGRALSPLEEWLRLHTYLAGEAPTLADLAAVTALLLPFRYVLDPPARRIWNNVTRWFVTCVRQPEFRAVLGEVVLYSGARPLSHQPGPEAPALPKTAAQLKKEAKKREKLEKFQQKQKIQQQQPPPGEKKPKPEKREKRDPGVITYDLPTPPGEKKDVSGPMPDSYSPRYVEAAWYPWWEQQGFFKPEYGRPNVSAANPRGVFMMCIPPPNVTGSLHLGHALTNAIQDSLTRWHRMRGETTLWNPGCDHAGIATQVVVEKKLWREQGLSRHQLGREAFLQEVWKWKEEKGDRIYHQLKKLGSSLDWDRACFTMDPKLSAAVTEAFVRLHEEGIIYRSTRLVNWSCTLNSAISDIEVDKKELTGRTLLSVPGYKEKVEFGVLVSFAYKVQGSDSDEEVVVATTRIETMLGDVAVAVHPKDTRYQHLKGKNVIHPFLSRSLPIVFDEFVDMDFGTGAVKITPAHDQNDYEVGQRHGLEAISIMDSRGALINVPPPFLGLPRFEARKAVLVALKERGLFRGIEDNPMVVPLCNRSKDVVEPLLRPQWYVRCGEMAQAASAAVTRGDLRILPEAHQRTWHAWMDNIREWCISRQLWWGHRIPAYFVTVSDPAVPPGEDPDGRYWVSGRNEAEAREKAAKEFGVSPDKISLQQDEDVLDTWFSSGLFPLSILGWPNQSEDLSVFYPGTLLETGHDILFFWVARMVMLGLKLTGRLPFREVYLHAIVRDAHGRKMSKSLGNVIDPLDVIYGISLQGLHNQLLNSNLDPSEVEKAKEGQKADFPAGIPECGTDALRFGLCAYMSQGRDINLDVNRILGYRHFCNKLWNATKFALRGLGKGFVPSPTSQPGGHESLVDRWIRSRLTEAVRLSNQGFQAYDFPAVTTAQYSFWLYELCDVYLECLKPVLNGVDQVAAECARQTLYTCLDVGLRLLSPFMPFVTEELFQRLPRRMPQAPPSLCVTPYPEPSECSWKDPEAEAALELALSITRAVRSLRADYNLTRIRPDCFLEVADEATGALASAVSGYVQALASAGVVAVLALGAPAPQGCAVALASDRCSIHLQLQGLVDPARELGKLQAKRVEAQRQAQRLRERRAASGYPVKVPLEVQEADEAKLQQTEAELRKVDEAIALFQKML
UniProt Q7Z5K2: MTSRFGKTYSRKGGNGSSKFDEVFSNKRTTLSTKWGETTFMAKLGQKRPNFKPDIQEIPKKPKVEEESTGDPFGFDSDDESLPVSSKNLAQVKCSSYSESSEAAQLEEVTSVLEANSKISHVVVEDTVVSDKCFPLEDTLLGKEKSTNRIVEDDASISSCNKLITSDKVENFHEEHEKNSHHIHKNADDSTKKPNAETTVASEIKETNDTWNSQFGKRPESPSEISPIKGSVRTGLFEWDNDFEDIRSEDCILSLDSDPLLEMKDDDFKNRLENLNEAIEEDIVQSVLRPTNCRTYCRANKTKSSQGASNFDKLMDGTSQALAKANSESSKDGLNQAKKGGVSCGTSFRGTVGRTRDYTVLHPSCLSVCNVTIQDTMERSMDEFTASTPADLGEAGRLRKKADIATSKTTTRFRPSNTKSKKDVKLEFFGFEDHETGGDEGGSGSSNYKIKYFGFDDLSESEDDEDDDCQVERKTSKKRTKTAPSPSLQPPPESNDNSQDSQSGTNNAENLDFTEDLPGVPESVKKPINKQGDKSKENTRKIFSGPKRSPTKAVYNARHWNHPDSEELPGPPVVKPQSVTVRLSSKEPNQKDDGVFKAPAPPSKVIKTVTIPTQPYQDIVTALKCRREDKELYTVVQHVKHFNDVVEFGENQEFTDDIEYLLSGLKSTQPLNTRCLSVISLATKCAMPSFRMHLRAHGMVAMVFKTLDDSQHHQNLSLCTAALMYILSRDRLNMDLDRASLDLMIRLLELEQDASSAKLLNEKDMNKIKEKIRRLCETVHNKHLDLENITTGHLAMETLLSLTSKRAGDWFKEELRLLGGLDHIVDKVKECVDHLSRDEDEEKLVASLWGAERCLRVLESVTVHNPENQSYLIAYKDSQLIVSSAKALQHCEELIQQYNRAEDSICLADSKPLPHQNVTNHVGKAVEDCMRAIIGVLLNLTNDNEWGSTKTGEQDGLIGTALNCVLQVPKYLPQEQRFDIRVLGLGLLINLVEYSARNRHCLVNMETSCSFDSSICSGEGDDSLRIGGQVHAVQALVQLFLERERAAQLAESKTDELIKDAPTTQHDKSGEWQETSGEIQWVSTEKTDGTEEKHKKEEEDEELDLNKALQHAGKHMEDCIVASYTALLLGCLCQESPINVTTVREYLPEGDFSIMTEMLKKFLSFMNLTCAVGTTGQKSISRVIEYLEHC
UniProt Q69YN4: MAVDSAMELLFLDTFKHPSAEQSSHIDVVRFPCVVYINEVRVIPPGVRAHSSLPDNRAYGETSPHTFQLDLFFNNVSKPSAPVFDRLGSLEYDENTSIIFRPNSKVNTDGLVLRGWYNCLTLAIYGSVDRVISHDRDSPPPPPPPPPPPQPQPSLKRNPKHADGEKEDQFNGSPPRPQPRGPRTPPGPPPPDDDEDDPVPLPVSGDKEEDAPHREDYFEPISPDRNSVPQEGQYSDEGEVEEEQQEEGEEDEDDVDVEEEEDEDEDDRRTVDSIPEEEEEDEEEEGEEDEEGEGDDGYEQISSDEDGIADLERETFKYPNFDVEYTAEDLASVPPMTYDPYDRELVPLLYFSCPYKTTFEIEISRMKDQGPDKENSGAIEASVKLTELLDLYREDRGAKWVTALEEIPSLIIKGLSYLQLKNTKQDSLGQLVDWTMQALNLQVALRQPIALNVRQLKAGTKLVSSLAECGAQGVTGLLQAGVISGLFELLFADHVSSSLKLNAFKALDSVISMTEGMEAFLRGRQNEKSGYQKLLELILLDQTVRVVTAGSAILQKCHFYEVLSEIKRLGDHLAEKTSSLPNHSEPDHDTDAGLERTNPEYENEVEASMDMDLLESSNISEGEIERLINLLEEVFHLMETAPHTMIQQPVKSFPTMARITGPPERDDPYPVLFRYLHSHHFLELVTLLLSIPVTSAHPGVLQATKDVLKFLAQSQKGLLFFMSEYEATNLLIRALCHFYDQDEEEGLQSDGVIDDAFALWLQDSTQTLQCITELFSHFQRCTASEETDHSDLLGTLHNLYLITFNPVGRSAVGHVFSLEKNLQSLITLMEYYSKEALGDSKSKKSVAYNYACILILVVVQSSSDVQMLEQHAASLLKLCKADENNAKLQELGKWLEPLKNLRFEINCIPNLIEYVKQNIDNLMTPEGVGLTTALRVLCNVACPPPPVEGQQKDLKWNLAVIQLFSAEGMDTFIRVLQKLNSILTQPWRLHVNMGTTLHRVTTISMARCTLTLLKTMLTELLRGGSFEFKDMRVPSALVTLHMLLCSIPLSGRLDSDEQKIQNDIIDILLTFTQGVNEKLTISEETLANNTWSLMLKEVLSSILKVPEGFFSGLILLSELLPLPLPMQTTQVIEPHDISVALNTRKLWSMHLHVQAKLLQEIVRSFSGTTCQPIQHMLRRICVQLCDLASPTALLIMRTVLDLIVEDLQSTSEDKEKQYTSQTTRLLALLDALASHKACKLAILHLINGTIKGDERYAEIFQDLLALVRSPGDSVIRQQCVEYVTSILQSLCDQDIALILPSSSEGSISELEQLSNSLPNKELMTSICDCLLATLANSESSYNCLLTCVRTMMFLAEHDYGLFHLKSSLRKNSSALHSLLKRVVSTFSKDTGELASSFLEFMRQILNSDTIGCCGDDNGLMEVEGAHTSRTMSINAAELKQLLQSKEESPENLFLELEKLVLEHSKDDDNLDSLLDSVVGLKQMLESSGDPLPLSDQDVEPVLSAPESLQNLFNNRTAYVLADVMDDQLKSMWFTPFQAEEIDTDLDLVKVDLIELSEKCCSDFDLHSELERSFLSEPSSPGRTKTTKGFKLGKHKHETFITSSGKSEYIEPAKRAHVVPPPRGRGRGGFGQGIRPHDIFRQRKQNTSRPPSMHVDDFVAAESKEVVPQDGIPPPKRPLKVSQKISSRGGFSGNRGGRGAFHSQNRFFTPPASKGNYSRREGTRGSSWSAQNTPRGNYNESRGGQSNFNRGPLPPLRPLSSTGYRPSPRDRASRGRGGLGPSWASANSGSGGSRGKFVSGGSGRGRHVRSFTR
UniProt Q96JC1: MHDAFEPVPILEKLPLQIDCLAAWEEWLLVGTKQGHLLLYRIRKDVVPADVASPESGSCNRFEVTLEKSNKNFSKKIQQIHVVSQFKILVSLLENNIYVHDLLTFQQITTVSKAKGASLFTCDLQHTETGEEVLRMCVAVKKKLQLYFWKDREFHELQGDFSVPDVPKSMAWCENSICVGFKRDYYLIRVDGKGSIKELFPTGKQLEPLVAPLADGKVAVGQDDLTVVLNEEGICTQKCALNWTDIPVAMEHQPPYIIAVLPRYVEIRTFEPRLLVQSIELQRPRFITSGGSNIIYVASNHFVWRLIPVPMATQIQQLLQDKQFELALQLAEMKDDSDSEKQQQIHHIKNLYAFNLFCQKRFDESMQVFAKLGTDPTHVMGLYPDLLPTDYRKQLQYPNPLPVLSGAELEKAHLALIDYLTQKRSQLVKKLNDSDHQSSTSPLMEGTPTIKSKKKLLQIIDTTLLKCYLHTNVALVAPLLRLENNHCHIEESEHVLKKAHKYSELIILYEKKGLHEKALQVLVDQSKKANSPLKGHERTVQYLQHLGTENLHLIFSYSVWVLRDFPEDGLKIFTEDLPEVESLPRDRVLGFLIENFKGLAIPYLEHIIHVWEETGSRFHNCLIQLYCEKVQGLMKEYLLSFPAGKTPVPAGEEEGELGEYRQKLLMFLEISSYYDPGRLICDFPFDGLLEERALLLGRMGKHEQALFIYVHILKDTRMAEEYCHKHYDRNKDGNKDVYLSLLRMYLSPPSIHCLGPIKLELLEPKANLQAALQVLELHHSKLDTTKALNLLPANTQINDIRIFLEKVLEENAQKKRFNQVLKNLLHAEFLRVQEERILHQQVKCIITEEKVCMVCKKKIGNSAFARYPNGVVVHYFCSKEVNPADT
UniProt P23381: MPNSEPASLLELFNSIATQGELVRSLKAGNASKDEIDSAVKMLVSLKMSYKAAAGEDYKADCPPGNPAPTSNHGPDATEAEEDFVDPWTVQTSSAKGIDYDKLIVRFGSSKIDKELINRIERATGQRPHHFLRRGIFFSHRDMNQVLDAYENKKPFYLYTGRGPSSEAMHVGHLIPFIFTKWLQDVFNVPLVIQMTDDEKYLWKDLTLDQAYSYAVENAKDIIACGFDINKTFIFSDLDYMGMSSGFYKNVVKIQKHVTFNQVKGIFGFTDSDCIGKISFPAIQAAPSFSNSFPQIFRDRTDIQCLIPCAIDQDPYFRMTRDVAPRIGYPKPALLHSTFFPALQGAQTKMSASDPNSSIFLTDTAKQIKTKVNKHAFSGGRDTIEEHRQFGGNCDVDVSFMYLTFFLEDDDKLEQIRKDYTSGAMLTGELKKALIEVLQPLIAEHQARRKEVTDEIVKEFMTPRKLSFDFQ

Compound: Cc1cc(ccc1-c1ccccc1)C(=O)N1CCCN(CC1)C(=O)CCl [compound 10]
Experiment: probe-labelled cysteine peptide fold change vs DMSO (competition) (log2 fold change); higher = less target engagement (more negative = stronger competition)
Settings: THP-1, incubation time: 4 h
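Note: competitive profiling in live THP-1 cells: cysteine peptides tagged with an iodoacetamide desthiobiotin (IA-DTB) probe, intensity after compound treatment relative to DMSO-treated cells.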

Target	probe-labelled cysteine peptide fold change (10 µM)	probe-labelled cysteine peptide fold change (50 µM)
VPS28_Q9UK41_128_CIADVVSLFITVMDK (UniProt Q9UK41)	-0.0247	-0.327
VPS8_Q8N3P4_512_QDCLTEALALAWSFHEGK (UniProt Q8N3P4)	0.0465	0.27
USP9X_Q93008_864_EYINECDSDYHEER (UniProt Q93008)	-0.017	-0.113
VTA1_Q9NP79_38_RDPVVAYYCR (UniProt Q9NP79)	0.198	0.262
VAT1_Q99536_86_ACGLNFADLMAR (UniProt Q99536)	-0.0795	-0.11
VPS13B_Q7Z7G8_1218_CSNPQVQLFYELTDIMNK (UniProt Q7Z7G8)	-0.169	0.299
VPS53_Q5VIR6_242_DACLVANILDPR (UniProt Q5VIR6)	0.146	0.451
VCL_P18206_325_EILGTCK (UniProt P18206)	0.207	0.163
VLDLR_P98155_40_CEPSQFQCTNGR (UniProt P98155)	-0.103	-0.313
VAV1_P15498_794_YDFCAR (UniProt P15498)	-0.169	0.781
VPS13C_Q709C8_2395_SCLNVFNNLAK (UniProt Q709C8)	0.182	0.215
VPS72_Q15906_292_EVCPVTHRPALYRDPVTDIPYATAR (UniProt Q15906)	0.0991	0.144
VARS_P26640_444_ACFTMDPK (UniProt P26640)	0.207	-0.117
WAC_Q9BTA9_615_VCEIQATLR (UniProt Q9BTA9)	0.222	0.307
VPS13B_Q7Z7G8_3937_VACDVEVDGVR (UniProt Q7Z7G8)	-0.368	-0.626
UTP18_Q9Y5J1_241_NCQHANAERPTVAR (UniProt Q9Y5J1)	-0.0377	-0.0456
VPS8_Q8N3P4_925_IIDCYLRDPLREEEVFNYIHNILSIPGHSAEEK (UniProt Q8N3P4)	0.153	-0.0136
VLDLR_P98155_251_CPASEIQCGSGECIHK (UniProt P98155)	-0.12	-0.248
VPS8_Q8N3P4_564_KCPDQGK (UniProt Q8N3P4)	0.0415	0.163
WAPL_Q7Z5K2_344_KGGVSCGTSFR (UniProt Q7Z5K2)	-0.117	-0.401

Target	probe-labelled cysteine peptide fold change (10 µM)	probe-labelled cysteine peptide fold change (50 µM)
WAPL_Q7Z5K2_906_AEDSICLADSKPLPHQNVTNHVGK (UniProt Q7Z5K2)	-0.226	-0.229
VIRMA_Q69YN4_1559+1560_CCSDFDLHSELER (UniProt Q69YN4)	-0.377	-0.427
VPS39_Q96JC1_358_NLYAFNLFCQK (UniProt Q96JC1)	0.255	0.239
VRK1_Q99986_205_YCPEGVHK (UniProt Q99986)	-0.177	-0.0561
VSIR_Q9H7M9_83_GEVQTCSER (UniProt Q9H7M9)	-0.102	0.23
WARS_P23381_274_GIFGFTDSDCIGK (UniProt P23381)	-0.0361	0.173
VPS53_Q5VIR6_424_CFEPHLYVYIESQDK (UniProt Q5VIR6)	0.121	0.274
VLDLR_P98155_108_CDGDPDCEDGSDESPEQCHMR (UniProt P98155)	-0.0653	-0.558
VIRMA_Q69YN4_781_CTASEETDHSDLLGTLHNLYLITFNPVGR (UniProt Q69YN4)	0.189	0.139
UVRAG_Q9P2Y5_71_NGHQLLDTYFTLHLCSTEK (UniProt Q9P2Y5)	0.0232	0.0171
VAV2_P52735_557_CGVGAHK (UniProt P52735)	0.0428	-0.182
USP9Y_O00507_148_CIINNTHR (UniProt O00507)	0.027	0.385
WAPL_Q7Z5K2_675_CLSVISLATK (UniProt Q7Z5K2)	0.0765	-0.0235
VLDLR_P98155_344_VCNQEQDCR (UniProt P98155)	0.0301	-0.187
VCP_P55072_174+184_VVETDPSPYCIVAPDTVIHCEGEPIKR (UniProt P55072)	-0.472	0.096
VPS39_Q96JC1_877_YPNGVVVHYFCSK (UniProt Q96JC1)	0.156	0.168
WARS_P23381_309_DRTDIQCLIPCAIDQDPYFR (UniProt P23381)	0.181	0.228
VPS4A_Q9UN37_233_QHKPSIIFIDEVDSLCGSR (UniProt Q9UN37)	0.0504	-0.0399
VARS_P26640_917_ADFPAGIPECGTDALR (UniProt P26640)	-0.0666	0.158
UTP20_O75691_2388_QLAALICGLFVESEGVDFEKR (UniProt O75691)	0.315	-0.0875
